In patent US8933130B2, “Treatment of vasomotor symptoms with selective estrogen receptor modulators” (Radius Health, Inc., priority 2006, dated 2015):
For at least one compound, name, drawing or mass did not settle the structure.

Test system: 19-day old Sprague-Dawley rats (uteri)
Assay: Antagonism of estradiol-mediated uterine stimulation: uterine wet weight in 19-day old rats
Type: in vivo, rat
Settings: estradiol alone 0.01 mg/kg s.c. once daily for three days; FIG. 3
Procedure: 19-day old Sprague-Dawley rats were treated with either vehicle (95% corn oil/5% DMSO), estradiol (0.01 mg/kg), or a combination of estradiol (0.01 mg/kg) and SERM A (10, 3, 1, 0.3, 0.1, 0.03, 0.01 mg/kg). The rats were dosed once daily by subcutaneous injection for three consecutive days. 24 hours after the last dose, the rats were euthanized, uteri were harvested and their wet weight recorded.

C[C@]12CC[C@@H]3c4ccc(O)cc4CC[C@H]3[C@@H]1CC[C@@H]2O [estradiol, reference compound]
uterine weight compared to vehicle: significantly increases uterine weight
